In PMC12040169 (PLOS Biology, 2025):
This is one part of the list.

The compounds below were run on T1, CTL2-GFP (C. trachomatis L2/434/Bu, GFP-expressing). Settings: bulk GFP, single well; 28.5 h, 10 µM; inhibitor.
T1 construct: L2/434/Bu, GFP-expressing
Parameters: species or system HeLa; Intracellular C. trachomatis growth in HeLa cells, bulk GFP fluorescence relative to DMSO

SMILES | % of control remaining
COC(=O)[C@@H]1Cc2ncn(C)c2CN1C(=O)c1ccc(C#N)cc1 [CBK288994] | 126.079%
CN(Cc1ccccc1)C(=O)c1c[nH]nc1C1CCCCN1Cc1ccccc1Cl (centres unmarked) [CBK285936] | 117.316%
CCNC(=O)c1cn(Cc2ccccc2)nn1 [CBK073904] | 124.995%
COc1ccc(C2=NN(CN3C(=O)C(=O)c4cc(Br)ccc43)C(c3cccc([N+](=O)[O-])c3)C2)cc1 (centres unmarked) [CBK263490] | 83.3377%
COCC(=O)N1CCC(c2nc(C)n3c(C)csc23)CC1 [CBK285198] | 107.19%
CCOc1ccc(CCNC(=O)c2cnc(Nc3ccccc3OC)c3ccccc23)cc1OCC [CBK291185] | 145.478%
Cc1[nH]c2ccc(C(=O)O)cc2c1CC(=O)O [CBK267080] | 138.813%
CCCC(=O)N[C@@H](Cn1c(=O)oc2ccccc21)C(C)C [CBK284536] | 138.578%
Brc1csc(CN2CCN3CCCC3C2C2CCCCC2)c1 (centres unmarked) [CBK026298] | 131.771%
CS(=O)(=O)Nc1cc2ccccc2c(-c2ccc(OC(F)(F)F)cc2)n1 [CBK085757] | 63.3038%
CCOC(=O)CN(Cc1ccccc1)Cc1ccc(OC)cc1 [CBK126460] | 100%
NCCN(Cc1cccc(Cl)c1)C(=O)NC(c1ccccc1)c1ccccc1 [CBK046203C] | 91.2412%
COc1cc(/C=C/C(=O)O)cc(S(=O)(=O)N2CCOCC2)c1OC [CBK264078] | 100.695%
COc1cc(CN2CCN(Cc3ccco3)CC2)cc(OC)c1OC [CBK074520G] | 115.733%
O=C(c1ccc(-c2cnc3[nH]c(=O)n(CCc4cccnc4)c3n2)cc1)N1CCOCC1 [CBK064334] | 164.368%
O=C(O)c1ccc(N2C(=O)C(O)=C(C(=O)c3ccccc3)C2c2cccc([N+](=O)[O-])c2)cc1 (centres unmarked) [CBK263760] | 105.963%
Cc1c(C(=O)N2CCC(C(=O)c3cccnc3)CC2)oc2ccccc12 [CBK283954] | 123.258%
O=C(NCCO)Nc1ccc2nccnc2c1 [CBK027577] | 100%
CSc1nnc2n3ncnc3c3c4c(sc3n12)CCCC4C (centres unmarked) [CBK288542] | 122.84%
CCc1nc2ccc(C(=O)NCc3ccc4c(c3)OCO4)cn2c1N(CCN(C)C)CC1CC1 [CBK145472] | 194.247%
O=C(NC(=S)Nc1ccc(-c2nc3ccccc3o2)c(O)c1)c1cncc(Br)c1 [CBK264931] | 100%
Cc1cc(C)nc(SCC(=O)Nc2ccc(C(=O)O)cc2)n1 [CBK263223] | 106.194%
CS(=O)(=O)c1ccc(-n2nnnc2CN2CCC3(CCCCC3)C2)cc1 [CBK306183] | 131.174%
COc1cnn(-c2ccccc2)c(=O)c1N(C)C [CBK020317] | 118.937%
Cc1ccccc1-c1ccccc1CC1(C(N)=O)CCN(C(=O)c2ccccc2)CC1 [CBK285721] | 111.02%
Cc1nc(C)n(C(C)CNC(=O)Cn2ccc3ccc(F)cc32)n1 (centres unmarked) [CBK282612] | 109.516%
O=[N+]([O-])c1ccccc1S(=O)(=O)N1CCN(C2CCCCCC2)CC1 [CBK264171G] | 138.6%

SMILES | % of control remaining
O=C1CCCN1CCOc1nccnc1-c1cc2ccccc2s1 [CBK106780] | 100%
Cc1cc2cc(C(=O)NCCCN3Cc4ccccc4C3)ccc2o1 [CBK282624] | 139.52%
CCN1CCc2nc(NC(=O)Cc3cn4ccsc4n3)sc2C1 [CBK304534] | 116.344%
COc1cccc(CN2CCC3(C/C=C/COc4ccccc4C(=O)NCCNC3=O)CC2)c1F [CBK292025] | 137.394%
Brc1cn2ccnc2c(NCc2ccccn2)n1 [CBK038024] | 186.319%
O=C(O)CSc1cccc([N+](=O)[O-])c1 [CBK110160] | 76.6559%
CSc1nc(-n2nc(C)cc2C)c2c3c(sc2n1)COC(C)(C)C3 [CBK268906] | 135.445%
Cc1cc(Cl)ccc1OCCCc1nnc(S)n1C [CBK288396] | 120.721%
Cc1cccc(C2(O)CCN(C(=O)c3ccc4nc(C)[nH]c4c3)CC2)c1 [CBK283299] | 140.47%
CCCCN1CC(C(=O)Nc2nccs2)CC1=O (centres unmarked) [CBK288224] | 109.566%
CCNC(=O)Nc1cc2ccccc2c(-c2ccc(F)cc2OC)n1 [CBK085731] | 122.886%
O=C(NC1CC1)[C@@H]1C=CCN1S(=O)(=O)c1ccc(F)cc1 [CBK284294] | 101.916%
Cc1cccc(/N=C2\NC(=O)C(Cc3ccc(C)c(Cl)c3)S2)n1 (centres unmarked) [CBK265597] | 109.89%
COc1ccc2c(c1)C(=O)CC1(CCN(C(=O)/C=C/c3ccc(C)cc3)CC1)O2 [CBK156438] | 105.043%
CCC(C(=O)O)N1C(=O)C(=Cc2ccc(-c3ccccc3C(F)(F)F)o2)SC1=S (centres unmarked) [CBK296985] | 131.493%
COc1ccc(OCCN2CCC(C(=O)NC(c3ccccn3)c3ccccc3OC)CC2)cc1 (centres unmarked) [CBK147938] | 100.419%
C#CCNC(=O)C1CCN(c2nc3ccccc3n2CC)CC1 [CBK283923] | 107.029%
C[C@@H]1C[C@H](C(F)(F)F)n2nc(C3CCCN3C(=O)C3CC3)cc2N1 (some centres unmarked) [CBK285432] | 114.756%
COc1ccc(C(NC(=O)Cc2ccc(-n3nnnc3C)cc2)c2ccccc2)cc1 (centres unmarked) [CBK285537] | 125.926%
COc1ccc(N2CCN(Cc3nc4c(c(=O)n(C)c(=O)n4C)n3CC(C)=O)CC2)cc1 [CBK269465] | 72.704%
Cc1cnc(CNS(=O)(=O)c2cnn(-c3ccccc3)c2C)cn1 [CBK062335] | 115.991%
CCn1c2ccccc2c2cc(CN3CCN(Cc4cc(OC)cc(OC)c4)CC3)ccc21 [CBK263164] | 100%
NC(=O)C1(Cc2cccc(-c3cccs3)c2)CCN(C(=O)Cc2cccc(F)c2)CC1 [CBK285783] | 147.487%
O=C1S/C(=C\c2ccc(F)c(Br)c2)C(=O)N1c1cccc(Cl)c1 [CBK095450] | 111.678%
COc1ncc(-c2nccnc2OCc2ccccc2)c(OC)n1 [CBK106748] | 100.105%
Cc1nc2c(C(=O)NCCC3OCCO3)cnn2c(C)c1Cc1cccnc1 [CBK162159] | 130.709%
CCOC(=O)c1cnc2c(C)c(Cl)ccc2c1NCCCN1CCOCC1 [CBK265296] | 115.572%

Of the compounds above, 4 contain a furan ring, fused or not.
SMILES | % of control remaining
COc1cc(CN2CCN(Cc3ccco3)CC2)cc(OC)c1OC [CBK074520G] | 115.733%
Cc1c(C(=O)N2CCC(C(=O)c3cccnc3)CC2)oc2ccccc12 [CBK283954] | 123.258%
Cc1cc2cc(C(=O)NCCCN3Cc4ccccc4C3)ccc2o1 [CBK282624] | 139.52%
CCC(C(=O)O)N1C(=O)C(=Cc2ccc(-c3ccccc3C(F)(F)F)o2)SC1=S (centres unmarked) [CBK296985] | 131.493%

Later entries

SMILES | % of control remaining
COc1c(C(=O)O)cc(C)c2c1CCC2C (centres unmarked) [CBK013617] | 128.855%
CCOc1ccc(N(CCC#N)C(=O)Cn2nc(C(=O)O)c3ccccc3c2=O)cc1 [CBK297502] | 163.74%
N#Cc1cccc(Cn2cc(NC(=O)NCCc3cccs3)cn2)c1 [CBK043824] | 86.2542%
CCCc1n[nH]c(C(C)C)c1C(=O)OCC [CBK115724] | 107.391%
CCN(CC)C(=O)CN1CCC(Oc2nccnc2OCc2cc(C)on2)CC1 [CBK082959T] | 102.11%
CN(CCc1cn[nH]c1)C(=O)CCc1ccc(Cl)cc1 [CBK283183] | 89.6066%
O=C(O)CCC(=O)Nc1ccc(C(=O)O)cc1 [CBK260952] | 100%
CCOC(=O)N/N=C(/C)c1ccc(Br)s1 [CBK019480] | 135.149%
Clc1ccc(-n2c(COc3cccc4cccnc34)nnc2SCc2ccccc2)cc1 [CBK268502] | 121.207%
Cc1cc(NC(=O)CN2CCN(Cc3ccccc3C#N)CC2)no1 [CBK305644] | 138.512%
Cn1cccc1C(=O)N[C@H]1C[C@H]2C(=O)Nc3cc(Cl)ccc3C(=O)N2C1 [CBK289364] | 122.718%
COC(=O)c1ccc(CC(C)C)nc1SC1=NCCCN1 [CBK005294C] | 129.666%
Cc1noc(C)c1C(=O)N[C@H]1CO[C@H]2[C@@H]1OC[C@H]2OCc1ccccc1 [CBK289458] | 99.578%
CCn1c(=O)n(CC(=O)N(C)C2CCCCC2)c2cccnc21 [CBK283786] | 144.36%
O=C(c1cccnc1)N1CCN(C(=O)c2ccco2)CC1 [CBK072684] | 94.8602%
Cc1ccc(S(N)(=O)=O)cc1C(=O)NC(C)CCc1ccccc1 (centres unmarked) [CBK296671] | 141.83%
CC(C)(C)OC(=O)NC1CCN(C(=O)Nc2ccc(OCc3ccccc3)cc2)CC1 [CBK086602] | 98.5191%
OC(CN1CCC(O)(c2ccccc2F)CC1)c1ccccc1 (centres unmarked) [CBK282490] | 98.2209%
Cc1cc(C)c(S(=O)(=O)NCCSCCC(=O)O)c(C)c1 [CBK013358] | 130.975%
COc1ccc(CCNC(=O)CN2CCCC2c2cnn(C)c2)cc1 (centres unmarked) [CBK305371] | 122.7%
Cc1ccc2c(C(=O)Nc3sc4c(c3C(N)=O)CCCCC4)cc(-c3ccccn3)nc2c1C [CBK267749] | 130.725%
COCc1nc2n(n1)CC(NC(C)C(C)OCc1ccccc1)CC2 (centres unmarked) [CBK304724] | 105.371%
CSC(C)CCN1CCn2nc(CNc3cnccn3)cc2C1 (centres unmarked) [CBK307376] | 153.657%
CCc1cc(=O)[nH]c(-c2ccc(N(C)CC(C)O)nc2)n1 (centres unmarked) [CBK306484] | 109.95%
CC(=O)Nc1ccc(S(N)(=O)=O)cc1Cl [CBK028784] | 124.957%
CCc1nnc(NS(=O)(=O)c2ccc(OC(F)(F)F)cc2)s1 [CBK026672] | 108.167%
